Paper PMC9958104, “Arabidopsis histone H3 lysine 9 methyltransferases KYP/SUVH5/6 are involved in leaf development by interacting with AS1-AS2 to repress KNAT1 and KNAT2” (Communications Biology, 2023)
No constants are given. Whether binding was seen depends on the method and setting. Binding seen in cells or lysates may run through a third protein. Some results given as binding are weak or reduced against the parent protein; the word gives no strength. Sequences can lack the tags named with a protein. One block for each binder: values may come before it.

What was measured:
[1] = target: T1, … LEAVES1 (AS1), BiFC fusion (Arabidopsis thaliana) (UniProt O80931); experiment: split reporter; BiFC (YN/YC halves of YFP) in transiently transformed Arabidopsis protoplasts; confocal microscopy
T1 sequence: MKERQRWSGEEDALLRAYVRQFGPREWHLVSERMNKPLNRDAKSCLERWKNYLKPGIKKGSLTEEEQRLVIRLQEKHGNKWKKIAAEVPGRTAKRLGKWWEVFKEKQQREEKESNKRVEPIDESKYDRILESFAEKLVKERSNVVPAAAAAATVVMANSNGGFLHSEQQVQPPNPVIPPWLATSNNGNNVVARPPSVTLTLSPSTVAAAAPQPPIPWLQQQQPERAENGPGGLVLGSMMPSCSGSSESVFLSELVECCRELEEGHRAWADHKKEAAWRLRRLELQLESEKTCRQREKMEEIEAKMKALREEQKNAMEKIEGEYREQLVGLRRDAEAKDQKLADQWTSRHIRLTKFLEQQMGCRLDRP

[2] = target: T2, … LEAVES2 (AS2), BiFC fusion (Arabidopsis thaliana) (UniProt O04479); experiment: as above
T2 sequence: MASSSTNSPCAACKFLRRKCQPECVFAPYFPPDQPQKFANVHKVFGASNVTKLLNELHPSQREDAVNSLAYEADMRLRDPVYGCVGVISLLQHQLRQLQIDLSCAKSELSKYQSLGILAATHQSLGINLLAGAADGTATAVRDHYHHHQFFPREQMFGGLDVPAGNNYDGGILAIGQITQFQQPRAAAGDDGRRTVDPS

[3] = target: T1, … LEAVES1 (AS1), BiFC fusion (Arabidopsis thaliana); experiment: split reporter; BiFC (YN/YC halves of YFP) in Agrobacterium GV3101-infiltrated N. benthamiana leaves; confocal microscopy; nucleus marked by NLS-mCherry
[4] = target: T2, … LEAVES2 (AS2), BiFC fusion (Arabidopsis thaliana); experiment: as above
[5] = target: T3, AS2-GFP (Arabidopsis thaliana) (UniProt O04479); experiment: co-IP; KYPpro::KYP:FLAG/kyp Arabidopsis protoplasts with AS2-GFP
T3 sequence: T2 sequence

binding [1]: binds
binding [2]: binds
binding [3]: binds
binding [4]: binds
B1: SUPPRESSOR OF …ON 3-9 HOMOLOG 6 (SUVH6), full length, BiFC fusion (enzyme, UniProt Q8VZ17 1-790)
chain: MEMGVMENLMVHTEISKVKSQSNGEVEKRGVSVLENGGVCKLDRMSGLKFKRRKVFAVRDFPPGCGSRAMEVKIACENGNVVEDVKVVESLVKEEESLGQRDASENVSDIRMAEPVEVQPLRICLPGGDVVRDLSVTAGDECSNSEQIVAGSGVSSSSGTENIVRDIVVYADESSLGMDNLDQTQPLEIEMSDVAVAKPRLVAGRKKAKKGIACHSSLKVVSREFGEGSRKKKSKKNLYWRDRESLDSPEQLRILGVGTSSGSSSGDSSRNKVKETLRLFHGVCRKILQEDEAKPEDQRRKGKGLRIDFEASTILKRNGKFLNSGVHILGEVPGVEVGDEFQYRMELNILGIHKPSQAGIDYMKYGKAKVATSIVASGGYDDHLDNSDVLTYTGQGGNVMQVKKKGEELKEPEDQKLITGNLALATSIEKQTPVRVIRGKHKSTHDKSKGGNYVYDGLYLVEKYWQQVGSHGMNVFKFQLRRIPGQPELSWVEVKKSKSKYREGLCKLDISEGKEQSPISAVNEIDDEKPPLFTYTVKLIYPDWCRPVPPKSCCCTTRCTEAEARVCACVEKNGGEIPYNFDGAIVGAKPTIYECGPLCKCPSSCYLRVTQHGIKLPLEIFKTKSRGWGVRCLKSIPIGSFICEYVGELLEDSEAERRIGNDEYLFDIGNRYDNSLAQGMSELMLGTQAGRSMAEGDESSGFTIDAASKGNVGRFINHSCSPNLYAQNVLYDHEDSRIPHVMFFAQDNIPPLQELCYDYNYALDQVRDSKGNIKQKPCFCGAAVCRRRLY

binding [1]: binds
binding [2]: binds
binding [3]: binds
binding [4]: binds
B2: SUPPRESSOR OF …ON 3-9 HOMOLOG 5 (SUVH5), full length, BiFC fusion (enzyme, UniProt O82175 1-794)
chain: MVHSESSILSSLRGGDGGGIPCSKDELAINGSYTDPMGRRKSKRFKVAAESEFSPDFGSITRQLRSRRMQKEFTVETYETRNVSDVCVLSSQADVELIPGEIVAERDSFKSVDCNDMSVGLTEGAESLGVNMQEPMKDRNMPENTSEQNMVEVHPPSISLPEEDMMGSVCRKSITGTKELHGRTISVGRDLSPNMGSKFSKNGKTAKRSISVEEENLVLEKSDSGDHLGPSPEVLELEKSEVWIITDKGVVMPSPVKPSEKRNGDYGEGSMRKNSERVALDKKRLASKFRLSNGGLPSCSSSGDSARYKVKETMRLFHETCKKIMQEEEARPRKRDGGNFKVVCEASKILKSKGKNLYSGTQIIGTVPGVEVGDEFQYRMELNLLGIHRPSQSGIDYMKDDGGELVATSIVSSGGYNDVLDNSDVLIYTGQGGNVGKKKNNEPPKDQQLVTGNLALKNSINKKNPVRVIRGIKNTTLQSSVVAKNYVYDGLYLVEEYWEETGSHGKLVFKFKLRRIPGQPELPWKEVAKSKKSEFRDGLCNVDITEGKETLPICAVNNLDDEKPPPFIYTAKMIYPDWCRPIPPKSCGCTNGCSKSKNCACIVKNGGKIPYYDGAIVEIKPLVYECGPHCKCPPSCNMRVSQHGIKIKLEIFKTESRGWGVRSLESIPIGSFICEYAGELLEDKQAESLTGKDEYLFDLGDEDDPFTINAAQKGNIGRFINHSCSPNLYAQDVLYDHEEIRIPHIMFFALDNIPPLQELSYDYNYKIDQVYDSNGNIKKKFCYCGSAECSGRLY

Continued, binder first:

B3: KRYPTONITE/SUPPRESSOR OF …ON 3-9 HOMOLOG 4 (KYP/SUVH4), full length, BiFC fusion (enzyme, UniProt Q8GZB6 1-624)
chain: MAGKRKRANAPDQTERRSSVRVQKVRQKALDEKARLVQERVKLLSDRKSEICVDDTELHEKEEENVDGSPKRRSPPKLTAMQKGKQKLSVSLNGKDVNLEPHLKVTKCLRLFNKQYLLCVQAKLSRPDLKGVTEMIKAKAILYPRKIIGDLPGIDVGHRFFSRAEMCAVGFHNHWLNGIDYMSMEYEKEYSNYKLPLAVSIVMSGQYEDDLDNADTVTYTGQGGHNLTGNKRQIKDQLLERGNLALKHCCEYNVPVRVTRGHNCKSSYTKRVYTYDGLYKVEKFWAQKGVSGFTVYKYRLKRLEGQPELTTDQVNFVAGRIPTSTSEIEGLVCEDISGGLEFKGIPATNRVDDSPVSPTSGFTYIKSLIIEPNVIIPKSSTGCNCRGSCTDSKKCACAKLNGGNFPYVDLNDGRLIESRDVVFECGPHCGCGPKCVNRTSQKRLRFNLEVFRSAKKGWAVRSWEYIPAGSPVCEYIGVVRRTADVDTISDNEYIFEIDCQQTMQGLGGRQRRLRDVAVPMNNGVSQSSEDENAPEFCIDAGSTGNFARFINHSCEPNLFVQCVLSSHQDIRLARVVLFAADNISPMQELTYDYGYALDSVHGPDGKVKQLACYCGALNCRKRLY
binding [1]: binds
binding [2]: binds
binding [3]: binds
binding [4]: binds

B4: KYP fused with the 3xFLAG epitope tag driven by the KYP native promoter (KYPpro::KYP:FLAG) (enzyme, UniProt Q8GZB6 1-624)
chain: B3 chain
binding [5]: binds
